Out of some 200,000 compounds screened, about 25 (0.01%) were called active. This list was built around the results that the source calls inconclusive (neither active nor inactive); the mix of calls is not that of the screen. Calls come from the whole dose curve; as a rule, active = well fitted inhibition curve with a large enough effect in the signal ratio, with a control signal flat (not every such curve was filed as active); inconclusive = small, poorly fitted or top-dose-only effect, or effect the other way, or a change in a side signal; inactive = flat fitted curve, though single readings scatter; the % refers to the signal ratio. Potencies of inconclusive entries are doubtful fits and often do not repeat.
Experiment: qHTS Assay for Modulators of Lamin A Splicing
Details: HeLa LMNA splicing GFP/RFP minigene ratio, 48 h; ratio change, negative = inhibition: at 46.1 µM (top of the series) unless noted
Summary of the method: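 Read-out is the ratio of GFP to DsRed2 object intensity, acquired by 488 nm laser-scanning cytometry on HeLa lamin A-EGFP minigene reporter cells. Compound incubation 48 hrs at 37 °C in Opti-MEM with 2% FBS; DMSO 0.5% final.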
% is set by controls: 0 for no effect and ±100 for the full control effect; potency is the fitted concentration of half-maximal effect.

SMILES	ratio change, negative = inhibition	Potency
CCOc1ccc(S(=O)(=O)Nc2ccc3oc(C)c(C(=O)OC(C)C)c3c2)cc1	inconclusive: -17.8% [at 46 µM]	
O=C(Nc1ccc(F)c(Cl)c1)C1CCN(S(=O)(=O)c2ccc3[nH]c(=O)ccc3c2)CC1	inactive: 18.2% [at 46 µM]	
Cc1cc(C(=O)N2CCN(Cc3ccc4c(c3)OCO4)CC2)cs1	inconclusive: -3.45%	
CNC(=O)NC(=O)CSc1nc(-c2cccs2)c(C#N)c(=O)[nH]1	inconclusive: -9.88% [at 46 µM]	
COc1cccc(N2CCN(Cc3nc(N)nc(N4CCCc5ccccc54)n3)CC2)c1	inconclusive: -18.7%	
CCOC(=O)c1c(NC(=O)c2ccc(Br)cc2)sc2c1CCCC2	inactive: -5.63% [at 46 µM]	
NC(=O)[C@@H]1CCCNc2c(F)cc([N+](=O)[O-])cc2C(=O)N[C@@H](CO)C(=O)NCC(=O)N1	inconclusive: -1.61%	
O=C(Nc1ccccc1)Nc1nc2ccccc2s1	inconclusive: -2.64% [at 46 µM]	
NC(=O)N[C@H]1NC(=O)NC1=O	inconclusive: -4.5%	
CCN(CC)c1ccc(/C=N/NC(=O)Nc2ccccc2)cc1		inconclusive: 35.5 µM [cytotoxic, partial curve]
COc1cccc(-c2cc(C(=O)Nc3cc(OC)c(OC)c(OC)c3)no2)c1	inconclusive: -40.9%	
C[C@@H]1NC(=O)[C@H](CCCN=C(N)N)NC(=O)c2cc([N+](=O)[O-])cc(I)c2NCCC[C@@H](C(N)=O)NC1=O	inconclusive: 1.48%	
NC(=O)N/N=C/c1ccc(-c2cccc(C(F)(F)F)c2)o1	inconclusive: 16.2% [at 46 µM]	
CCOc1ccc2nc(NCCNC(=O)Nc3ccccc3)c(C#N)cc2c1	inconclusive: 32%	
O=[N+]([O-])c1cccc(/C=N/n2c(-c3cccnc3)n[nH]c2=S)c1	inconclusive: 12.9%	
COc1ccc(S(=O)(=O)NCCS(=O)(=O)N2CCN(c3ccccc3)CC2)cc1C	inactive: 5.1% [at 46 µM]	
CCN(CC)c1ccc2c(c1)oc(=O)c1c(Cl)cc(=O)oc12	inconclusive: -2.9%	
O=C(Cc1ccccc1)N1CCN(C(=O)c2ccco2)CC1	inactive: -2.38%	
COc1ccc(N2CCN(Cc3cccn3-c3nnc(N4CCN(C5CCCCC5)CC4)s3)CC2)cc1	inconclusive: -16% [at 46 µM]	
COc1cc2c(cc1OC)CN(C(=O)NS(=O)(=O)c1ccc(C)cc1)CC2	inconclusive: 10.3%	
CC1CCN(c2cc(N3CCN(C(=O)c4ccc(F)c(F)c4)CC3)c([N+](=O)[O-])cc2F)CC1		inconclusive: 35.5 µM [fluorescent, single point]
Cc1ccc(C2(C(F)(F)F)NC(=O)N3N=C4CCCCCN4C3=C2C#N)cc1 (stereo unspecified)		inconclusive: 0.794 µM [activator, partial curve, poor fit]
Cc1ccc(N2C(=O)N(Cc3cc(=O)n4ccccc4n3)c3ccccc3S2(=O)=O)cc1Cl	inactive: -16.9% [at 46 µM]	
CCCCNc1nc(=S)n(-c2ccccc2)c(C)c1C(C)=O	inconclusive: 12.4% [at 46 µM]	
Cc1cc(NS(=O)(=O)c2ccccc2)c(C)c(Cl)c1O	inconclusive: 9%	
C=CCn1c(C)c(C(C)=O)c(SC)nc1=S	inactive: 4.33%	

Ordered by number of heavy atoms (largest number first): part of the list above
SMILES	ratio change, negative = inhibition	Potency
COc1ccc(N2CCN(Cc3cccn3-c3nnc(N4CCN(C5CCCCC5)CC4)s3)CC2)cc1	inconclusive: -16% [at 46 µM]	
COc1ccc(S(=O)(=O)NCCS(=O)(=O)N2CCN(c3ccccc3)CC2)cc1C	inactive: 5.1% [at 46 µM]	
CCOc1ccc(S(=O)(=O)Nc2ccc3oc(C)c(C(=O)OC(C)C)c3c2)cc1	inconclusive: -17.8% [at 46 µM]	
CCOc1ccc2nc(NCCNC(=O)Nc3ccccc3)c(C#N)cc2c1	inconclusive: 32%	
Cc1cc(C(=O)N2CCN(Cc3ccc4c(c3)OCO4)CC2)cs1	inconclusive: -3.45%	
CCN(CC)c1ccc(/C=N/NC(=O)Nc2ccccc2)cc1		inconclusive: 35.5 µM [cytotoxic, partial curve]
NC(=O)N/N=C/c1ccc(-c2cccc(C(F)(F)F)c2)o1	inconclusive: 16.2% [at 46 µM]	
Cc1cc(NS(=O)(=O)c2ccccc2)c(C)c(Cl)c1O	inconclusive: 9%	
O=C(Nc1ccccc1)Nc1nc2ccccc2s1	inconclusive: -2.64% [at 46 µM]	
NC(=O)N[C@H]1NC(=O)NC1=O	inconclusive: -4.5%	

The listing continues.

SMILES	ratio change, negative = inhibition	Potency
O=C(CSc1nnc(Cc2cccs2)n1-c1ccccc1)Nc1ccc2c(c1)OCCO2	inactive: -3.39%	
COc1cc(CN2CCN(Cc3ccc(SC)cc3)CC2)cc(OC)c1O	inconclusive: 1.33% [at 46 µM]	
C[C@@H](C[C@@H](O)[C@H](O)C(C)(C)O)[C@@H]1CC[C@]2(C)C3=CC[C@H]4C(C)(C)C(=O)CC[C@]4(C)[C@H]3CC[C@@]12C	inactive: -3.75%	
Cc1c(Nc2nc3ccccc3n3c(C)nnc23)cccc1C(=O)O	inactive: 4.25% [at 46 µM]	
COc1ccccc1C(=O)Nc1ccccc1OCc1cc(=O)n2ccccc2n1	inconclusive: -23% [at 46 µM]	
NS(=O)(=O)c1ccc(NC(=S)Nc2ccc(F)c(F)c2)cc1	inconclusive: -56.3%	
COc1cccc(N2CC(NC(=O)c3ccc(S(=O)(=O)N4CCOCC4)cc3)CC2=O)c1 (stereo unspecified)	inconclusive: 7.99% [at 46 µM]	
CC1=C(C(=O)Nc2cccc(Cl)c2C)C2(CCCCCC2)OC1=O	inconclusive: 9.21% [at 46 µM]	
Cc1cc(C)cc(N2C(=O)CC(Sc3ncn[nH]3)C2=O)c1 (stereo unspecified)	inconclusive: -26.2% [at 46 µM]	
Nc1ccc2c3c(cccc13)C(=O)NC2=O	inconclusive: -1.63%	
CCN(CC)C1=CC(=[N+]2CCCC2)CC(C)(C)C1		inconclusive: 7.08 µM [fluorescent, partial curve]
COc1ccc(-c2nc3cnc(N4CCN(C)CC4)nc3n(-c3ccc(OC)cc3)c2=O)cc1	inactive: 17.9%	
NC(=O)c1sc2nc(N3CCCCC3)c3c(c2c1N)CCCC3	inconclusive: 14.9%	
C=CCNC(=S)NNC(=O)c1cccn(Cc2ccc(Cl)cc2Cl)c1=O	inconclusive: -5.75%	
NNC(=O)CSc1nc(-c2ccccc2)nc2c1CCCC2	inactive: -3.82% [at 46 µM]	
COc1ccc(NC(=O)CCCC2CCCCC2)cc1S(=O)(=O)N1CCCCC1		inconclusive: 22.4 µM [fluorescent, single point]
Cc1ccsc1CN1CCc2nc(Nc3ccccc3)ncc2C1	inconclusive: -18.5% [at 46 µM]	
CS(=O)(=O)Nc1cccc(-c2ccc3ncnc(NCCN4CCOCC4)c3c2)c1	inactive: -9.34%	
O=C(/C=C/c1ccc(Cl)cc1Cl)c1ccc[nH]1		inconclusive: 35.5 µM [rising, single point]
CC(Sc1nncn1C)C(=O)Nc1ccc(S(N)(=O)=O)cc1 (stereo unspecified)	inconclusive: -4.18% [at 46 µM]	
S=C(Nc1ccc(N2CCOCC2)cc1)Nc1ccc2snnc2c1	inconclusive: -1.8% [at 46 µM]	
CC(=O)C1=C(C)N(Cc2ccccc2)C(=O)N[C@H]1c1cccc(F)c1	inconclusive: 12.3% [at 9.22 µM]	
CN1CCC(OC(c2ccccc2)c2ccccc2)CC1	inconclusive: -19.6%	
Brc1ccc2nc(-c3c[nH]c4ccccc34)cn2c1	inconclusive: 0.837% [at 46 µM]	
Cc1cc(C)c(NC(=O)CCS(=O)(=O)c2cc3c(cc2Cl)NC(=O)CO3)c(C)c1	inconclusive: 14.6% [at 46 µM]	

Reference: PubChem BioAssay AID1487 (National Center for Advancing Translational Sciences (NCATS), 2009)
